Common to all, as to format: cell-based, Pseudomonas aeruginosa
In data set [1] the test system is P. aeruginosa aggregate biofilms. Description: Oxygen profiling of treated ABBA samples. Particulars: after 6 hr treatment; 40 μg/ml tobramycin, 10 mM chlorate.
For data set [2], the system named is P. aeruginosa narG transposon mutant. Description: Anaerobic adaptation and survival, narG mutant. The following applies: 1 mM chlorate, 72 hr anoxic. As for the experimental part:
Overnight cultures were grown aerobically in LB with 40 mM KNO3, 100 mM L-arabinose, 50 μg ml^−1 gentamicin (for strains containing pMQ72-derived plasmids), and 50 μg ml^−1 kanamycin (for transposon insertion strains). Overnight cultures were pelleted, washed twice in LB with 100 mM L-arabinose to remove antibiotics, and resuspended in LB with 100 mM L-arabinose with or without 1 mM sodium chlorate at high cell density (OD500˜3). Two hundred microliters of resuspended culture was added to 96-well microtiter plates, and the plates were moved to the anaerobic glove box for cells to adapt to the anaerobic lifestyle. After a 72-hr incubation at 33° C., 96-well plates were removed from the anaerobic glove box and viable cells on plates were counted to calculate numbers of CFU per milliliter (described above). Percent survival was calculated for each strain by dividing CFU-permilliliter values from cultures containing chlorate by the average CFU-per-milliliter value from control cultures lacking chlorate and multiplying by 100. CFU-per-milliliter values of untreated control cultures were similar across strains, ranging from 1.0×10^9 to 2.2×10^9. The percentage of chlorate remaining after the 72-hr incubation was determined for each strain by dividing the final chlorate concentration in each culture by the initial chlorate concentration in the medium and multiplying by 100.
In these experiments, the wild type (WT) and a narG transposon mutant were used and complemented with narGHJI (encoding Nar structural subunits and assembly proteins) carried by an arabinose-inducible vector or with an empty vector. Because narG mutants cannot grow anaerobically, all strains were grown aerobically, washed and resuspended in fresh medium containing or lacking chlorate, and moved to an anaerobic chamber to adapt to anoxia. Viable-cell plate counts were determined after a 72-hr incubation. While oxic WT cultures are not sensitive to chlorate (FIG. 1), anoxia-adapted cultures show a 5-log decrease in viable-cell counts compared to untreated cultures (FIG. 5A). […]

The next data set relates to P. aeruginosa cultures. Description: 72 hr survival assay with viable-cell counts and chlorate quantification. Particulars: 1 mM chlorate. The procedure: Viable-cell plate counts were performed by serially diluting samples in phosphate-buffered saline (PBS). Dilutions spanning 7 orders of magnitude were plated on LB agar plates as 10-μl drips. Plates were incubated at 37° C. for ˜20 h, and incubation continued at room temperature (72 hr of total incubation) to allow for the growth of slow-growing colonies. Colonies were counted daily, and numbers of CFU per milliliter were calculated at the end of the incubation period. All viable-cell plate counting was carried out under aerobic conditions.

With `[O-][Cl+2]([O-])O` [chlorate, sodium chlorate], the “oxygen profile of treated aggregate biofilms” value in data set [1] is given as “remain greater than zero”. This compound also showed a chlorate consumed in data set [2] (nap genes overexpressed in narG mutant background) of 15%. Moreover, the “chlorate concentrations in culture” value in data set [2] (narG mutant cultures) is listed as “stable”; in data set [2] (narG mutant-complemented cultures), “decrease”; with P. aeruginosa cultures (oxic cultures, 72 hr) it was “stable”. Further, in the data set with P. aeruginosa cultures (anoxic cultures with 40 mM nitrate, during nitrate consumption), the “chlorate consumption by culture” value is on record as “consumed at a seemingly constant rate”.

(Values after patent publication US20190142864A1, “METHODS AND SYSTEMS, FOR INTERFERING WITH VIABILITY OF BACTERIA AND RELATED ANTIMICROBIALS AND COMPOSITIONS” (CALIFORNIA INSTITUTE OF TECHNOLOGY, priority 2017, published 2019).)
